Data as given in PubChem BioAssay AID1259308 (NCATS, 2017)

- Assay: 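Candidate targets for better recombinant protein yield in mammalian cells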 (primary screen)
- System: human HEK293 embryonic kidney cells stably expressing firefly luciferase (HEK-CMV-Luc2-Hygro)
- Knock-down reagent: single siRNA against human genes, 0.8 pmol siRNA per well
- Timing: 72 h
- Read-out: 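Luciferase light (ONE-Glo) measured on one replicate plate set and viability (CellTiter-Glo) on the other, scaled to a negative control siRNA, with robust z-scores and luciferase per cell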
- Scale: total luciferase, z-score and total luciferase, % of control: higher = more reporter protein produced; luciferase per cell, z-score: higher = more reporter output per viable cell; viable cells, % of control: higher = more viable cells
- Call rule: 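Active when the median/MAD z-score for overall luciferase is greater than 3; a gene was taken forward for validation with new siRNAs if at least two of its three siRNAs passed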
- Meaning of the calls: active = raised luciferase; inactive = no rise
In all, the deposit lists about 59,000 reagents; this is a part drawn at random. Over the whole deposit, about 1,510 (2.6%) are marked active. 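Calls use total luciferase alone and ignore viability, so some active siRNAs may act by altering cell number.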 Reagents against one gene are numbered here. Reagent sequences are not shown.

| target gene | reagent | total luciferase, z-score | total luciferase, % of control | luciferase per cell, z-score | viable cells, % of control | Call |
| --- | --- | --- | --- | --- | --- | --- |
| PPP1R14B | 1 | 0.414 | 90.1 | -0.27 | 108 | inactive |
| PPP1R14B | 2 | -0.246 | 77 | -0.419 | 96.1 | inactive |
| PPP1R14B | 3 | -0.834 | 65.3 | -0.767 | 89.3 | inactive |
| PLPPR3 | 1 | -0.0811 | 80.3 | -0.533 | 103 | inactive |
| PLPPR3 | 2 | 0.466 | 91.2 | 0.888 | 80.6 | inactive |
| PLPPR3 | 3 | 0.156 | 85 | 0.217 | 89.7 | inactive |
| CACFD1 | 1 | 0.23 | 86.5 | 0.12 | 93.6 | inactive |
| CACFD1 | 2 | 0.548 | 92.8 | 0.0427 | 103 | inactive |
| CACFD1 | 3 | 3.71 | 156 | 2.38 | 93 | active |
| WDR59 | 1 | 0.844 | 98.7 | 1.96 | 65.8 | inactive |
| WDR59 | 2 | -1.12 | 59.6 | -0.868 | 83.7 | inactive |
| WDR59 | 3 | -0.646 | 69 | 0.127 | 74.6 | inactive |
| VAMP4 | 1 | -0.423 | 73.5 | -0.0775 | 83.8 | inactive |
| VAMP4 | 2 | -1.7 | 48 | 0.26 | 50.1 | inactive |
| VAMP4 | 3 | -0.825 | 65.5 | 0.279 | 68 | inactive |
| CCDC117 | 1 | -0.284 | 76.2 | -0.78 | 105 | inactive |
| CCDC117 | 2 | -0.533 | 71.3 | -0.476 | 90.3 | inactive |
| CCDC117 | 3 | -1.39 | 54.3 | -0.23 | 64.4 | inactive |
| MED25 | 1 | -1.23 | 57.4 | -0.687 | 76.8 | inactive |
| MED25 | 2 | -1.04 | 61.2 | -0.143 | 71 | inactive |
| MED25 | 3 | 1.74 | 116 | 1.33 | 91.6 | inactive |
| FGA | 1 | 0.323 | 88.3 | -0.0782 | 101 | inactive |
| FGA | 2 | 0.827 | 98.3 | 0.492 | 96.5 | inactive |
| FGA | 3 | -1.58 | 50.5 | -2.34 | 104 | inactive |
| SAMM50 | 1 | -0.424 | 73.5 | -0.964 | 106 | inactive |
| SAMM50 | 2 | 0.32 | 88.3 | -0.277 | 106 | inactive |
| SAMM50 | 3 | 0.18 | 85.5 | 1.67 | 61.6 | inactive |
| DAGLA | 1 | 0.0393 | 82.7 | 0.802 | 74.8 | inactive |
| DAGLA | 2 | 0.235 | 86.6 | 0.447 | 86 | inactive |
| DAGLA | 3 | -0.481 | 72.3 | 0.722 | 66.8 | inactive |
| GBP4 | 1 | 1.48 | 111 | 2.59 | 63 | inactive |
| GBP4 | 2 | -0.331 | 75.3 | -0.219 | 89.1 | inactive |
| GBP4 | 3 | 0.556 | 92.9 | 0.029 | 103 | inactive |
| COMMD6 | 1 | 3.39 | 149 | 3.27 | 70.5 | active |
| COMMD6 | 2 | -0.158 | 78.7 | 0.02 | 87.5 | inactive |
| COMMD6 | 3 | 2.03 | 122 | 2.63 | 68.2 | inactive |

The list goes on, starting with the last 3 of the part before.
| target gene | reagent | total luciferase, z-score | total luciferase, % of control | luciferase per cell, z-score | viable cells, % of control | Call |
| --- | --- | --- | --- | --- | --- | --- |
| COMMD6 | 1 | 3.39 | 149 | 3.27 | 70.5 | active |
| COMMD6 | 2 | -0.158 | 78.7 | 0.02 | 87.5 | inactive |
| COMMD6 | 3 | 2.03 | 122 | 2.63 | 68.2 | inactive |
| PAGE4 | 1 | 1.93 | 120 | 1.78 | 84.1 | inactive |
| PAGE4 | 2 | 1.13 | 104 | 1.43 | 80.1 | inactive |
| PAGE4 | 3 | -0.72 | 67.6 | -0.832 | 94 | inactive |
| DPYSL2 | 1 | -0.0899 | 80.1 | -0.554 | 104 | inactive |
| DPYSL2 | 2 | 0.94 | 101 | 0.878 | 89.2 | inactive |
| DPYSL2 | 3 | 0.0191 | 82.3 | -0.482 | 104 | inactive |
| DEPDC4 | 1 | 2.38 | 129 | 2.43 | 76.1 | inactive |
| DEPDC4 | 2 | -0.709 | 67.8 | -0.229 | 80.4 | inactive |
| DEPDC4 | 3 | 0.281 | 87.5 | -0.177 | 102 | inactive |
| NOL12 | 1 | 0.828 | 98.4 | 0.254 | 103 | inactive |
| NOL12 | 2 | -0.148 | 78.9 | -0.373 | 97.3 | inactive |
| NOL12 | 3 | 0.824 | 98.3 | 0.701 | 91.3 | inactive |
| COPB2 | 1 | 3.01 | 142 | 2.33 | 85.7 | active |
| COPB2 | 2 | 1.54 | 112 | 2.11 | 72.1 | inactive |
| COPB2 | 3 | 1.67 | 115 | 2.09 | 74.2 | inactive |
| SMTNL2 | 1 | 2.11 | 124 | 1.9 | 83.8 | inactive |
| SMTNL2 | 2 | 0.932 | 100 | 1.76 | 70.6 | inactive |
| SMTNL2 | 3 | -0.0221 | 81.4 | 0.128 | 88 | inactive |
| GNPNAT1 | 1 | 0.206 | 86 | -0.0308 | 96.9 | inactive |
| GNPNAT1 | 2 | -0.353 | 74.9 | -0.462 | 94.5 | inactive |
| GNPNAT1 | 3 | -0.236 | 77.2 | 0.463 | 76.4 | inactive |
| GDF7 | 1 | 0.574 | 93.3 | 0.991 | 80.3 | inactive |
| GDF7 | 2 | -1.78 | 46.4 | -1.93 | 86.3 | inactive |
| GDF7 | 3 | 0.266 | 87.2 | 1.36 | 68.1 | inactive |
| WNK4 | 1 | 0.17 | 85.3 | 0.418 | 85.3 | inactive |
| WNK4 | 2 | -0.363 | 74.7 | -0.665 | 99.4 | inactive |
| WNK4 | 3 | -0.116 | 79.6 | 0.214 | 84.1 | inactive |
| PHACTR1 | 1 | -1.25 | 57.1 | -2.02 | 109 | inactive |
| PHACTR1 | 2 | -0.167 | 78.6 | -0.227 | 93.2 | inactive |
| PHACTR1 | 3 | 1.23 | 106 | 1.73 | 75.3 | inactive |
| PAK4 | 1 | -0.906 | 63.9 | -0.292 | 77.1 | inactive |
| PAK4 | 2 | -0.852 | 64.9 | -0.879 | 91.5 | inactive |
| PAK4 | 3 | 0.924 | 100 | 2.3 | 61.2 | inactive |
| MIA3 | 1 | 1.2 | 106 | 1.35 | 82.8 | inactive |
| MIA3 | 2 | 0.0641 | 83.2 | -0.0367 | 93.8 | inactive |
| MIA3 | 3 | 0.0906 | 83.7 | -0.315 | 102 | inactive |
| FANCD2OS | 1 | -1.78 | 46.4 | -1.46 | 76.1 | inactive |
| FANCD2OS | 2 | -1.46 | 52.9 | -0.609 | 69.4 | inactive |
| FANCD2OS | 3 | -0.458 | 72.8 | -0.469 | 92 | inactive |
